Measurements as given in paper PMC10626543.

Sequences of proteins named here, by UniProt entry; tags and fusion partners are left off. Residues count along the entry.
UniProt P48678, residues 1-647: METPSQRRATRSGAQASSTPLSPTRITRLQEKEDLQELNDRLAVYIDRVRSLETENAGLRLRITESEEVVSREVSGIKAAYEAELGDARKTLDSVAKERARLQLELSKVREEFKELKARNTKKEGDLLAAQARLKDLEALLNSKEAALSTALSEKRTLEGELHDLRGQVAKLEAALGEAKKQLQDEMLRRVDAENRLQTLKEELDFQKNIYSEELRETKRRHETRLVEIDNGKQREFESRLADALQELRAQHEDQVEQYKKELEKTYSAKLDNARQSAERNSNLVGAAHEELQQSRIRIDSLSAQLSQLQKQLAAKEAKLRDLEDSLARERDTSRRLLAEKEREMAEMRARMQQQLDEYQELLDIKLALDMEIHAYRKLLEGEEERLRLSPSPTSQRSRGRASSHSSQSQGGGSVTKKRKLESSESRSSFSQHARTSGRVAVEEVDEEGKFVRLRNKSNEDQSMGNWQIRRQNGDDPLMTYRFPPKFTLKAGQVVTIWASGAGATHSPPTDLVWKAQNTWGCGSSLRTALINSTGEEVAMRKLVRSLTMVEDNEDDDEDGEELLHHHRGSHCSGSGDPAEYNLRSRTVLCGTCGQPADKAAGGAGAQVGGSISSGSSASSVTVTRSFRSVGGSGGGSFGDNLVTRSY

B1: Mindy1 (De-ubiquitinating enzyme) (protein, UniProt Q76LS9 1-468)
chain: MEQPQTENPAPSKATSAETVESENHEALSGPEKHPQDKDGADADGAAGEQEPGDQTLPPAQDGENLECPPPEASSSPPGPACGTSPKVETAEVCSRPQELPQSPRIQQPELDFYCVKWIPWKGERTPIITQSTNGPCPLLAIMNILFLQWKVKLPPQKEVITSDELLTHLGNCLLSIKPQEKSEGLQLNFQQNVDDAMTVLPKLATGLDVNVRFTGVSDFEYTPECSIFDLLGIPLYHGWLVDPQSPEAVSAVGKLSYNQLVEKIITCKHSSDSNLVTEGLVAEQFLETTAAQLTYHGLCELTAAATEDELSVFFRNNHFSTMTKHKSHLYLLVTDQGFLQEEQVVWESLHNVDGDSCFCDSDFHLSHSLGKSHGAEGGGGSPEKQLQVDQDYLIALSLQQQQQPQGTLGLSDLELAQQLQQEEYQQQQAVQPVRTRAPSPQGRGATSGRPAGERRQRSKTESDCVLL
B2: Lmcd1 (mouse) (protein, UniProt Q8VEE1 1-365)
chain: MAKVAKDLNPGVQKMSLGQQQSARGVACLRCKGMCSGFEPHSWRKICKSCKCSQEEHCLSSDLDDDRKIGRLLMDSKYATLTARVKGGDGIRIYKRNRMIMTNPIATGKDPTFDTITYEWAPPGVTQKLGLQYMELIPKERQPVTGTEGALYRRRQLMHQLPIYDQDPSRCRGLVENELKAMEEFVKHYKSEALGVGEVALPGQGGLPKEENKTQEKPEGTETTAPTTNGSLGDPSKEVEYVCELCKGAAPVDSPVVYADRAGYSKQWHPTCFQCIKCSEPLVDLIYFWKDGAPWCGRHYCESVRPRCSGCDEIIFSEDYQRVEDLAWHRKHFICEGCEQLLSGRAYIVTKGQLLCPTCSKSKRS
B3: Ppme1 (protein, UniProt Q8BVQ5 1-386)
chain: MSALEKSMHLGRLPSRPPLPGSGGSQSGAKMRMGPGRKRDFTPVPWSQYFESMEDVEVENETGKDTFRVYKSGSEGPVLLLLHGGGHSALSWAVFTAAIISRVQCRIVALDLRGHGETKVKNSEDLSAETMAKDVGNVVEAMYGDLPPPVMLIGHSMGGAIAVHTAAANLVPSLLGLCMIDVVEGTAMDALNSMQNFLRGRPKTFKSLENAIEWSVKSGQIRNLESARVSMVGQVKQCEGITSPEGSKSIVEGIIEEEEEDEEGSESVNKRKKEDDMETKKDHPYTWRIELAKTEKYWDGWFRGLSNLFLSCPIPKLLLLAGVDRLDKDLTIGQMQGKFQMQVLPQCGHAVHEDAPDKVAEAVATFLIRHRFAEPIGGFQCVFPGC
B4: Fbp2 (fructose-1,6-bisphosphatase isozyme 2) (protein, UniProt P70695 1-339)
chain: MTDRSPFETDMLTLTRYVMEKGRQAKGTGELTQLLNSMLTAIKAISSAVRKAGLANLYGISGSVNVTGDEVKKLDVLSNSLVINMLQSSYSTCVLVSEENKEAVITAQERRGKYVVCFDPLDGSSNIDCLASIGTIFAIYRKTTEDEPSEKDALQPGRNIVAAGYALYGSATLVALSTGQGVDLFMLDPALGEFVLVEKDVRIKKKGKIFSLNEGYAKYFDAATAEYVQKKKFPEDGSEPYGARYVGSMVADVHRTLVYGGIFMYPANQKSPNGKLRLLYECNPVAYIIEQAGGMATTGTQPVLDVKPESIHQRVPLILGSPEDVQEYLSCVQRNQAGR
B5: RanGap1 (protein, UniProt P46061 1-589)
chain: MASEDIAKLAETLAKTQVAGGQLSFKGKGLKLNTAEDAKDVIKEIEEFDGLEALRLEGNTVGVEAARVIAKALEKKSELKRCHWSDMFTGRLRSEIPPALISLGEGLITAGAQLVELDLSDNAFGPDGVRGFEALLKSPACFTLQELKLNNCGMGIGGGKILAAALTECHRKSSAQGKPLALKVFVAGRNRLENDGATALAEAFGIIGTLEEVHMPQNGINHPGVTALAQAFAINPLLRVINLNDNTFTEKGGVAMAETLKTLRQVEVINFGDCLVRSKGAVAIADAVRGGLPKLKELNLSFCEIKRDAALVVAEAVADKAELEKLDLNGNALGEEGCEQLQEVMDSFNMAKVLASLSDDEGEDEDEEEEGEEDDEEEEDEEDEEDDDEEEEEQEEEEEPPQRGSGEEPATPSRKILDPNSGEPAPVLSSPTPTDLSTFLSFPSPEKLLRLGPKVSVLIVQQTDTSDPEKVVSAFLKVASVFRDDASVKTAVLDAIDALMKKAFSCSSFNSNTFLTRLLIHMGLLKSEDKIKAIPSLHGPLMVLNHVVRQDYFPKALAPLLLAFVTKPNGALETCSFARHNLLQTLYNI
B6: 14-3-3 protein gamma (protein, UniProt P61982 1-247)
chain: MVDREQLVQKARLAEQAERYDDMAAAMKNVTELNEPLSNEERNLLSVAYKNVVGARRSSWRVISSIEQKTSADGNEKKIEMVRAYREKIEKELEAVCQDVLSLLDNYLIKNCSETQYESKVFYLKMKGDYYRYLAEVATGEKRATVVESSEKAYSEAHEISKEHMQPTHPIRLGLALNYSVFYYEIQNAPEQACHLAKTAFDDAIAELDTLNEDSYKDSTLIMQLLRDNLTLWTSDQQDDDGGEGNN
B7: Map2k3 (protein, UniProt O09110 1-347)
chain: MESPAASPPASLPQTKGKSKRKKDLRISCVSKPPVSNPTPPRNLDSRTFITIGDRNFEVEADDLVTISELGRGAYGVVEKVRHAQSGTIMAVKRIRATVNTQEQKRLLMDLDINMRTVDCFYTVTFYGALFREGDVWICMELMDTSLDKFYRKVLEKNMKIPEDILGEIAVSIVRALEHLHSKLSVIHRDVKPSNVLINKEGHVKMCDFGISGYLVDSVAKTMDAGCKPYMAPERINPELNQKGYNVKSDVWSLGITMIEMAILRFPYESWGTPFQQLKQVVEEPSPQLPADQFSPEFVDFTSQCLRKNPAERMSYLELMEHPFFTLHKTKKTDIAAFVKEILGEDS
B8: Map2k4 (protein, UniProt P47809 1-397)
chain: MAAPSPSGGGGSGGGGGTPGPIGPPASGHPAVSSMQGKRKALKLNFANPPVKSTARFTLNPNTTGVQNPHIERLRTHSIESSGKLKISPEQHWDFTAEDLKDLGEIGRGAYGSVNKMVHKPSGQIMAVKRIRSTVDEKEQKQLLMDLDVVMRSSDCPYIVQFYGALFREGDCWICMELMSTSFDKFYKYVYSVLDDVIPEEILGKITLATVKALNHLKENLKIIHRDIKPSNILLDRSGNIKLCDFGISGQLVDSIAKTRDAGCRPYMAPERIDPSASRQGYDVRSDVWSLGITLYELATGRFPYPKWNSVFDQLTQVVKGDPPQLSNSEEREFSPSFINFVNLCLTKDESKRPKYKELLKHPFILMYEERTVEVACYVCKILDQMPATPSSPMYVD
B9: Map2k6 (protein, UniProt P70236 1-334)
chain: MSQSKGKKRNPGLKIPKEAFEQPQTSSTPPRDLDSKACISIGNQNFEVKADDLEPIVELGRGAYGVVEKMRHVPSGQIMAVKRIRATVNSQEQKRLLMDLDVSMRTVDCPFTVTFYGALFREGDVWICMELMDTSLDKFYKQVIDKGQTIPEDILGKIAVSIVKALEHLHSKLSVIHRDVKPSNVLINTLGQVKMCDFGISGYLVDSVAKTIDAGCKPYMAPERINPELNQKGYSVKSDIWSLGITMIELAILRFPYDSWGTPFQQLKQVVEEPSPQLPADKFSADFVDFTSQCLKKNSKERPTYPELMQHPFFTVHESKAADVASFVKLILGD
B10: Ppp1r12b (protein, UniProt Q8BG95 1-976)
chain: MAELEHLGGKRAESARARRAEQLRRWRGSLTEQEPAERQGAGRQLQTRRGSPRVRFEDGAVFLAACSSGDTDEVKKLLARGADINTVNVDGLTALHQACIDENLDMVKFLVENRANVNQQDNEGWTPLHAAASCGYLNIAEYFISHGASVGIVNSEGEVPSDLAEEPAMKDLLLEQVKKQGVDLEQSRKEEEQQMLQDARQWLNSGRIEDVRQARSGATALHVAAAKGYSEVLRLLIQAGYELNVQDHDGWTPLHAAAHWGVKEACSILAEALCDMDIRNKLGQTPFDVADEGLVEHLEMLQKKQDVLRSEKETRNKLIESDLNSKFQSGLFKNKEKMLYEEEIPKSQDTEEENKESSSSSSEEEEGEDEVSESETEKEADKKPEATVNHSNSEIKSRIMEQIPAPAQNTFSASSARRLSSLFNKAEEPKDESPSSWRLGLRKTGSHNMLSEVANSREALRDRGSSIYRSSSSPRISALLDDKDKERENKSYFSMLVPRRLSSTSDIEEKENRESAVNLVRSGSHTRQLWRDEAKGSETPQTIAPSTYTSTYLKRTPYKSQADSTAEKTADSVSSSTPLCVITNRPAPSTANGVPAATVFSSAGTDPSVEAREKRRSYLTPVRDEEAESLRKARSRQARQTRRSTQGVTLTDLQEAEKTFSRSRAERQAQEQPGEKLEDPGGLEGSTKKQEPSAAPTKGAGEGRSLEEEPIYHRLRYPTQPDKPTTPVSPSASRPSLYTGSHLLRTSRASGPDSENSETSTHATAAKEMDTSEKGEADLDDQSSNRLSVRERRRAKDRRRGTGINFWTNDEDETDVSEEVKEALHERLSRLESGGTNPTSSDSYSDRASARARREAREARLASLTSRVEEDSNRDYKKLYESALTENQKLKTKLQEAQLELADIKAKLEKMAQQKQEKTSDRSSVLEVEKRERRALERKMSEMEEEMKVLTELKSDNQRLKDENGALIRVISKLSK
B11: Ppp1r3a (protein, UniProt Q99MR9 1-1089)
chain: MEPAEEPGQISKDNFLEVPNLSDSVCEDEEVKATFKPGFSPQPSRRGSGSSEDMYLDTPTSASRRVSFADSLGFSLVSVKEFDCWELPSVSTDFDLSGDVFHTDEYVLSPLFDLPSSKEKLMEQLQVQKAVLESAEHLPGSSMKGIIRVLNISFEKLVYVRMSLDDWQTHYDILAEYVPNSCDGETDQFSFKISLVPPYQKEGGKVEFCIRYETSAGTFWSNNNGTNYILVCQKKRKEPEPVKPLEEAPSRQIKGCLKVKSRSKEEPLLAPEENKFETLKFTESYIPTIICSHEDKDDLGANHPNVDDINKKHDEHNGKELDLMINQRLITSQDEKNTFATDTVNFTNKAEGSEKKQAYHEINTDLFMGPLSPSLSAESSLKRDFYHSRSSSPGNEYGHPHSEEIISDMGEKGPSLGDTSSDELMQLELCSKEDLDDNANPANGSGRVCSSFDQRMACGLKNNEAGIKKTGIQDYKYSHGDSTKLEESNASSRDDYAKVDNKKEKQTCLGVNENPSKNFQSVFQTQEGHMGYPKISTEGDKANNQDLTSLLSKDITANTWAVTVDPCPSTNAKRSWREVGSGSNLEPGTSDLSSPRNFSPLTDDHLFQADRENSDSSNPENQNMNTRHRKKWNVLETQSETSETESDIAKHTKEQAEYKDMWEKTDNSRNLKATPTEHLFTCRETECYGLSSLADHGITEKAQAVTAYIIKTTLESTPESASARGKAIIAKLPQETAGNDRPIEVKETAFDPHEGRKDDSHYSLCHGDTAGVIHDNDFERESHLDICNLRVDEMKKEKTTSTCFPQKTYDKEKHGIGSVTSIDEPSQVITGNQKATSKLDLHLGVLPTDRAIFQANADLELLQELSRRTDFNAVPSAFNSDTASASRDSSQVYRHCSKKSVPSYGEEKAVTNTTLQSIPTKSEYNWHPESEVLGHAMSKPEDVFKSSEIMKSGSGGERGGGPILQQKEGSLENSQGPMFFTNEPLENLDEASSENEGLMHSGQSQCYLGDKGLVSSASATVSTQELEAQGRESLLSISTNSKIPYFLLFLIFLATVYYYDLMIGLAFYLFSLYWLYWEGGRQRESVKKK

biological target: native lamin A/C (mouse (endogenous in heart, skeletal muscle and brain)) (UniProt P48678); assay: affinity purification with mass spectrometry; native lamin A/C immunoprecipitated with mAb 4C11 and Protein G Sepharose from sonicated skeletal muscle lysates of old IL10-KO and control C57Bl/6 female mice (five each); 50 mM Tris pH 7.4, 300 mM NaCl, 0.3% Triton X-100, 4°C; TMT 10-plex

How did the binding turn out when B1 was run?
The binding was “binds”.

How did the binding turn out when B2 was run?
The binding was “binds”.

For B3, which binding is on record?
Its binding is “binds”.

B4 was tested. Which binding did it give?
The binding was “binds”.

With B5 as the binder, how does the binding read?
Its binding is “binds”.

How did the binding turn out when B6 was run?
Its binding is “binds”.

For B7, which binding is on record?
The binding was “binds”.

How did the binding turn out when B8 was run?
Its binding is “binds”.

How did the binding turn out when B9 was run?
The binding was “binds”.

B10 was tested. Which binding did it give?
Its binding is “binds”.

With B11 as the binder, how does the binding read?
Its binding is “binds”.

No constants are given. Whether binding was seen depends on the method and setting. In cells and extracts the contact can be indirect. These calls come from enrichment with a bait or labelling near it, and not all partners need be listed.
